Laboratory results from PubChem BioAssay AID1487 (National Center for Advancing Translational Sciences (NCATS), 2009).
This is one part of the list. The main result of the screen is listed elsewhere. These columns were measured beside it and carry no call. The list favours compounds with an active or inconclusive main result. Potencies come from curve fits of mixed quality, noted in brackets.

Assay: qHTS Assay for Modulators of Lamin A Splicing
Settings: HeLa LMNA splicing GFP/RFP minigene ratio, 48 h
Summary of the method: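 S3 HeLa stable clones carrying a lamin A-EGFP splicing minigene plus DsRed2 were seeded at 600 cells/well in Opti-MEM with 2% FBS, pin-dosed and incubated 48 h at 37°C. Acumen cytometry (488 nm) gave the GFP/RFP total-intensity ratio.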

[1] = measured here: RFP viability control channel
[2] = measured here: GFP splicing reporter channel

Compound | AC50 [1] | AC50 [2]
COc1ccc(CNC(=O)c2ccc3c(c2)NC(=O)C(C)S3)cc1 (stereo not given) | 0.0562 µM [falling, full curve, poor fit] | –
CC1CCN(S(=O)(=O)c2ccc(NC(=O)Cc3ccccc3)cc2)CC1 | 35.5 µM [rising, single point] | 22.4 µM [rising, single point]
O=C1c2cccc3cccc(c23)N1Cc1ccc(F)cc1 | 31.6 µM [rising, single point] | –
CN(/C(=N/S(=O)(=O)c1cccs1)c1ccccc1)c1ccccc1 | 6.31 µM [rising, single point] | –
Cc1occc1C(=O)N/N=C/C=C\c1ccccc1[N+](=O)[O-] | 0.631 µM [rising, partial curve, poor fit] | –
Cc1ccc(-c2nnc(CSc3nnc(COc4ccccc4)n3-c3ccc(C)cc3)o2)cc1 | 7.94 µM [rising, partial curve, poor fit] | –
c1ccc2c(N3CCOCC3)nc(-c3ccoc3)nc2c1 | – | 2.51 µM [falling, partial curve, poor fit]
CCCS(=O)(=O)N1CCC(C(=O)NCCCOCC)CC1 | 0.0501 µM [falling, full curve, poor fit] | –
COc1cccc(/C=N/NC(=O)C(=O)Nc2ccccc2OC(F)(F)C(F)F)c1O | 15.8 µM [rising, partial curve, poor fit] | 2.82 µM [rising, partial curve]
Cc1ccc(-n2ncc3c(Nc4ccccc4C)ncnc32)cc1 | – | 31.6 µM [falling, partial curve, poor fit]
CCOc1ccc(CCNC(=O)c2cc3sccc3n2C)cc1OCC | 14.1 µM [rising, single point] | –
CS(=O)(=O)c1nc(-c2ccc(Br)cc2)cc(-c2ccccc2)c1C#N | – | 10 µM [falling, partial curve, poor fit]
O=S(=O)(c1ccccc1)n1ccc2ccccc21 | 3.98 µM [rising, full curve, poor fit] | –
CCOC(=O)c1c(NC(=O)CSc2nnnn2CC)sc(C)c1C | 20 µM [rising, single point] | –
Cc1cc(C(=O)CSc2nnc(-c3ccco3)o2)c(C)n1CC1COc2ccccc2O1 (stereo not given) | 35.5 µM [rising, single point] | 22.4 µM [rising, single point]
O=C(NNC(=S)NCCc1ccccc1)c1ccc(Br)s1 | 2 µM [rising, partial curve] | 1.41 µM [rising, partial curve]
NC(=O)c1ccc(C23CC4CC(CC(C4)C2)C3)o1 | 14.1 µM [rising, single point] | 11.2 µM [rising, single point]
O=c1c(-c2cc(F)cc(F)c2)nc2cnc(N3CCNCC3)nc2n1Cc1ccc(F)cc1 | 17.8 µM [falling, single point] | 15.8 µM [falling, partial curve]
CCc1nc(N=C(N)N)nc2ccccc12 | – | 0.00316 µM [falling, full curve, poor fit]

13 entries from above, arranged by length of the SMILES, falling:
Compound | AC50 [1] | AC50 [2]
O=c1c(-c2cc(F)cc(F)c2)nc2cnc(N3CCNCC3)nc2n1Cc1ccc(F)cc1 | 17.8 µM [falling, single point] | 15.8 µM [falling, partial curve]
Cc1ccc(-c2nnc(CSc3nnc(COc4ccccc4)n3-c3ccc(C)cc3)o2)cc1 | 7.94 µM [rising, partial curve, poor fit] | –
Cc1cc(C(=O)CSc2nnc(-c3ccco3)o2)c(C)n1CC1COc2ccccc2O1 (stereo not given) | 35.5 µM [rising, single point] | 22.4 µM [rising, single point]
CS(=O)(=O)c1nc(-c2ccc(Br)cc2)cc(-c2ccccc2)c1C#N | – | 10 µM [falling, partial curve, poor fit]
CC1CCN(S(=O)(=O)c2ccc(NC(=O)Cc3ccccc3)cc2)CC1 | 35.5 µM [rising, single point] | 22.4 µM [rising, single point]
Cc1occc1C(=O)N/N=C/C=C\c1ccccc1[N+](=O)[O-] | 0.631 µM [rising, partial curve, poor fit] | –
COc1ccc(CNC(=O)c2ccc3c(c2)NC(=O)C(C)S3)cc1 (stereo not given) | 0.0562 µM [falling, full curve, poor fit] | –
CCOC(=O)c1c(NC(=O)CSc2nnnn2CC)sc(C)c1C | 20 µM [rising, single point] | –
CCOc1ccc(CCNC(=O)c2cc3sccc3n2C)cc1OCC | 14.1 µM [rising, single point] | –
NC(=O)c1ccc(C23CC4CC(CC(C4)C2)C3)o1 | 14.1 µM [rising, single point] | 11.2 µM [rising, single point]
CCCS(=O)(=O)N1CCC(C(=O)NCCCOCC)CC1 | 0.0501 µM [falling, full curve, poor fit] | –
O=S(=O)(c1ccccc1)n1ccc2ccccc21 | 3.98 µM [rising, full curve, poor fit] | –
CCc1nc(N=C(N)N)nc2ccccc12 | – | 0.00316 µM [falling, full curve, poor fit]

Following part:

Compound | AC50 [1] | AC50 [2]
Cn1cc(C(=O)NCc2ccccc2F)cn1 | 0.355 µM [falling, partial curve, poor fit] | 0.00891 µM [falling, full curve, poor fit]
O=C(COC(=O)c1n[nH]c2ccccc12)Nc1ccc(S(=O)(=O)N2CCCC2)cc1 | 8.91 µM [rising, partial curve] | –
O=C(/C=C/c1ccc2c(c1)OCO2)c1ccc[nH]1 | 8.91 µM [rising, partial curve, poor fit] | –
Cc1cc(SC(C)C(=O)Nc2ncc(Cl)cc2Cl)nc2ccccc12 (stereo not given) | 6.31 µM [rising, partial curve] | –
CCOc1ccc(NS(=O)(=O)c2ccc3[nH]c(=O)cc(C(=O)O)c3c2)cc1 | – | 3.98 µM [rising, single point]
c1nc2nc3c(c(N4CCOCC4)n2n1)CCCC3 | 2 µM [falling, single point] | 3.55 µM [falling, single point]
Cc1cccc(NC(=O)C2CCN(S(=O)(=O)c3c(C)nn(C)c3C)CC2)n1 | 11.2 µM [rising, single point] | –
COc1cccc(C(=O)NCCSc2ccc(Br)cc2)c1 | 11.2 µM [falling, single point] | –
Cc1ccccc1C(=O)Nc1ccc2c(c1)CCCN2C(=O)c1cccs1 | 5.01 µM [rising, full curve] | 5.62 µM [falling, full curve, poor fit]
COC(=O)c1c(C)[nH]c(C)c1-c1ccccc1Cl | 11.2 µM [rising, partial curve, poor fit] | 11.2 µM [rising, partial curve]
O=C(Nc1nc(-c2ccccc2)cs1)c1cccc(S(=O)(=O)N2CCN(Cc3ccccc3)CC2)c1 | 11.2 µM [rising, partial curve] | –
CCCn1c(SCC(=O)N2CCN(c3ccccc3)CC2)nc2ccccc2c1=O | 35.5 µM [rising, single point] | –
CC1CCc2c(C(=O)OCC(=O)Nc3cccc(S(=O)(=O)N4CCCCCC4)c3)csc2C1 (stereo not given) | 35.5 µM [rising, single point] | 35.5 µM [rising, single point]
CC(C)(C)c1cc(C(C)(C)C)cc(S(=O)(=O)CCc2ccccn2)c1 | – | 35.5 µM [rising, single point]
CCc1nc(-c2ccccc2O)n(-c2ccccc2)n1 | 0.0224 µM [falling, full curve, poor fit] | –
CC(=O)/C(=N/Nc1ccccc1)Sc1nnc(CCc2ccccc2)n1-c1ccccc1 | 20 µM [rising, partial curve, poor fit] | –
COc1ccc(-n2c(SCC(=O)Nc3ncc(Cl)cc3Cl)nc3ccccc32)cc1 | 3.16 µM [rising, single point] | –
Cc1ccc(NC(=O)c2ccc(-n3cccn3)c([N+](=O)[O-])c2)cc1C | 35.5 µM [rising, single point] | –
CCn1c2ccccc2c2cc(C3N=C(N)Nc4nc5ccccc5n43)ccc21 (stereo not given) | 1.12 µM [rising, partial curve, poor fit] | –

Compound | AC50 [1] | AC50 [2]
COC(=O)C1=C(C)NC=C([N+](=O)[O-])C1c1ccc(OC)cc1 (stereo not given) | 15.8 µM [rising, single point] | 15.8 µM [rising, single point]
Cc1noc(/C=C/c2ccco2)c1S(=O)(=O)N1CCC(C(=O)N2CCc3ccccc3C2)CC1 | 15.8 µM [rising, partial curve] | 11.2 µM [rising, partial curve]
CC(=O)Nc1sc(N/N=C\c2ccccc2Cl)nc1-c1cccs1 | 0.398 µM [rising, full curve] | 0.501 µM [rising, full curve, poor fit]
CC1(C)Cc2ccccc2-c2nc(-c3ccccc3)oc(=O)c21 | 5.62 µM [rising, partial curve] | –
CCCCOc1ccc(C(=O)Nc2nc3c(s2)CC(C)CC3)cc1 (stereo not given) | 0.0126 µM [falling, full curve] | –
CC(=O)c1cc(-c2ccccc2)n(CCC(=O)NC2CCCCCC2)c1C | 35.5 µM [rising, single point] | –
Cc1ccc(Cl)cc1Nc1nc(-c2sc(NC(=O)C(C)(C)C)nc2C)cs1 | 15.8 µM [rising, partial curve] | 17.8 µM [rising, single point]
C=CCNC(=S)N/N=C/c1ccc(N(CC)Cc2ccccc2)cc1 | 11.2 µM [rising, partial curve] | 12.6 µM [rising, partial curve]
O=C1CCCc2ccccc2N1Cc1ccc(Cl)cc1Cl | 12.6 µM [rising, single point] | –
CCn1c(=O)cc(SCC(=O)N2CCN(c3ccccc3OC)CC2)c2ccccc21 | 11.2 µM [rising, partial curve] | –
Cc1ccc([N+](=O)[O-])c(OCCN2CCCCCC2)c1 | 12.6 µM [rising, single point] | –
Cc1cccc(NC(=O)Cn2c(C)c(C#N)c3ccccc32)c1C | 5.62 µM [falling, single point] | 5.62 µM [falling, single point]
CCCn1c(SCC(=O)c2cc(C)c(C)cc2C)n[nH]c1=O | 35.5 µM [rising, single point] | –
O=C(CNC(=O)c1cccc(F)c1)N/N=C/c1cccc([N+](=O)[O-])c1 | – | 6.31 µM [rising, single point]
COc1cc2ncnc(NCc3ccccc3)c2cc1OC | 22.4 µM [rising, single point] | –
CCOc1ccc(NS(=O)(=O)c2cc(OCC(N)=O)c(C)cc2Cl)cc1 | 20 µM [rising, single point] | 17.8 µM [rising, single point]
O=C(CSc1ccc(Cl)cc1)Nc1ccccc1N1CCN(C(=O)c2ccccc2)CC1 | – | 10 µM [rising, partial curve, poor fit]
O=S(=O)(c1ccc(Cl)c(C(F)(F)F)c1)N1CCN(c2ccccn2)CC1 | 0.0501 µM [falling, full curve, poor fit] | –
CCOC(=O)N1CCC(NC(=S)Nc2ccc3nc(N4CCN(C)CC4)cc(C)c3c2)CC1 | – | 20 µM [falling, single point]
